Assay results as given in paper PMC8467208.
No constants are given. Whether binding was seen depends on the method and setting. Binding seen in cells or lysates may run through a third protein. Here binding means that the protein was enriched with, or labelled near, the bait; the list need not be complete. Sequences can lack the tags named with a protein.

Chains of the proteins cited; added tags and fusions are not shown.
UniProt Q6PGF7: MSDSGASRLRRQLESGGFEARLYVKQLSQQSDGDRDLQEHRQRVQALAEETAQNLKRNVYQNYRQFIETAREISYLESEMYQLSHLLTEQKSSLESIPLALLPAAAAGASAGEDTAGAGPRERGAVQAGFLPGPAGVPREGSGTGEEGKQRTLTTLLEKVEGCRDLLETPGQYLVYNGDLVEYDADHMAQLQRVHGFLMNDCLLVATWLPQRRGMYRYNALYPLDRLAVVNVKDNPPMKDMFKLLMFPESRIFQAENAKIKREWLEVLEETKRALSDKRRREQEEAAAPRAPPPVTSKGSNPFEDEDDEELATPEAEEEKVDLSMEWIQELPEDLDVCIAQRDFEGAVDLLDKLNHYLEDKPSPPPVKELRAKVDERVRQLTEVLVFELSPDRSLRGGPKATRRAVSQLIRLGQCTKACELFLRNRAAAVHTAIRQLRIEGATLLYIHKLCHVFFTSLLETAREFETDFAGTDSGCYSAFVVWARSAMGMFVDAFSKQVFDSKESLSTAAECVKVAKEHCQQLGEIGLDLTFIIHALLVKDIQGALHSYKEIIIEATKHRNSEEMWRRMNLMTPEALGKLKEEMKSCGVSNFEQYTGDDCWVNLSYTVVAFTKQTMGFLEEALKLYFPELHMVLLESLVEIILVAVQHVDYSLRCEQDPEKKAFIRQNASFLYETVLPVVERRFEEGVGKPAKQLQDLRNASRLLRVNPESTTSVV
UniProt P48722: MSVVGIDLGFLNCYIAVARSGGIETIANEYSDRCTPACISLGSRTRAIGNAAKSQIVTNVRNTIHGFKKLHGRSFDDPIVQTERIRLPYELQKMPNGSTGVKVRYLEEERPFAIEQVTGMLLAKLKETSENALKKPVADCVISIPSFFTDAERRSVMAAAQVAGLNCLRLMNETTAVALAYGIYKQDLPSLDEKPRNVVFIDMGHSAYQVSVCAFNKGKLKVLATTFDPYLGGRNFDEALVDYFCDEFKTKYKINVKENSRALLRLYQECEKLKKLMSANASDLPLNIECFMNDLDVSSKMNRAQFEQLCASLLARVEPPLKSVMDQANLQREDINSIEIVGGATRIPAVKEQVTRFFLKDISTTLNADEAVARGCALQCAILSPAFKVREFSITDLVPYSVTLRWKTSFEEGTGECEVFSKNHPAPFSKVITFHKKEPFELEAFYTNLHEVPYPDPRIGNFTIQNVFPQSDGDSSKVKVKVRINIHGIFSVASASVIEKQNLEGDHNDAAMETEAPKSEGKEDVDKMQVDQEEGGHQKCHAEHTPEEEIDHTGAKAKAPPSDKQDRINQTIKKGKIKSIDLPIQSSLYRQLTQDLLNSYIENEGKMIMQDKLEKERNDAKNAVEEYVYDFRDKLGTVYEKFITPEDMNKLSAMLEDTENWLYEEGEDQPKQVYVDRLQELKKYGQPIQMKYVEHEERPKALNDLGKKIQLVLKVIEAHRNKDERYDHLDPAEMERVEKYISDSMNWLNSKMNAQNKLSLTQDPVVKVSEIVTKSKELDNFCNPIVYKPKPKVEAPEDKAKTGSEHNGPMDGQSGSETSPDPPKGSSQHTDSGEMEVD
UniProt Q9QZ05: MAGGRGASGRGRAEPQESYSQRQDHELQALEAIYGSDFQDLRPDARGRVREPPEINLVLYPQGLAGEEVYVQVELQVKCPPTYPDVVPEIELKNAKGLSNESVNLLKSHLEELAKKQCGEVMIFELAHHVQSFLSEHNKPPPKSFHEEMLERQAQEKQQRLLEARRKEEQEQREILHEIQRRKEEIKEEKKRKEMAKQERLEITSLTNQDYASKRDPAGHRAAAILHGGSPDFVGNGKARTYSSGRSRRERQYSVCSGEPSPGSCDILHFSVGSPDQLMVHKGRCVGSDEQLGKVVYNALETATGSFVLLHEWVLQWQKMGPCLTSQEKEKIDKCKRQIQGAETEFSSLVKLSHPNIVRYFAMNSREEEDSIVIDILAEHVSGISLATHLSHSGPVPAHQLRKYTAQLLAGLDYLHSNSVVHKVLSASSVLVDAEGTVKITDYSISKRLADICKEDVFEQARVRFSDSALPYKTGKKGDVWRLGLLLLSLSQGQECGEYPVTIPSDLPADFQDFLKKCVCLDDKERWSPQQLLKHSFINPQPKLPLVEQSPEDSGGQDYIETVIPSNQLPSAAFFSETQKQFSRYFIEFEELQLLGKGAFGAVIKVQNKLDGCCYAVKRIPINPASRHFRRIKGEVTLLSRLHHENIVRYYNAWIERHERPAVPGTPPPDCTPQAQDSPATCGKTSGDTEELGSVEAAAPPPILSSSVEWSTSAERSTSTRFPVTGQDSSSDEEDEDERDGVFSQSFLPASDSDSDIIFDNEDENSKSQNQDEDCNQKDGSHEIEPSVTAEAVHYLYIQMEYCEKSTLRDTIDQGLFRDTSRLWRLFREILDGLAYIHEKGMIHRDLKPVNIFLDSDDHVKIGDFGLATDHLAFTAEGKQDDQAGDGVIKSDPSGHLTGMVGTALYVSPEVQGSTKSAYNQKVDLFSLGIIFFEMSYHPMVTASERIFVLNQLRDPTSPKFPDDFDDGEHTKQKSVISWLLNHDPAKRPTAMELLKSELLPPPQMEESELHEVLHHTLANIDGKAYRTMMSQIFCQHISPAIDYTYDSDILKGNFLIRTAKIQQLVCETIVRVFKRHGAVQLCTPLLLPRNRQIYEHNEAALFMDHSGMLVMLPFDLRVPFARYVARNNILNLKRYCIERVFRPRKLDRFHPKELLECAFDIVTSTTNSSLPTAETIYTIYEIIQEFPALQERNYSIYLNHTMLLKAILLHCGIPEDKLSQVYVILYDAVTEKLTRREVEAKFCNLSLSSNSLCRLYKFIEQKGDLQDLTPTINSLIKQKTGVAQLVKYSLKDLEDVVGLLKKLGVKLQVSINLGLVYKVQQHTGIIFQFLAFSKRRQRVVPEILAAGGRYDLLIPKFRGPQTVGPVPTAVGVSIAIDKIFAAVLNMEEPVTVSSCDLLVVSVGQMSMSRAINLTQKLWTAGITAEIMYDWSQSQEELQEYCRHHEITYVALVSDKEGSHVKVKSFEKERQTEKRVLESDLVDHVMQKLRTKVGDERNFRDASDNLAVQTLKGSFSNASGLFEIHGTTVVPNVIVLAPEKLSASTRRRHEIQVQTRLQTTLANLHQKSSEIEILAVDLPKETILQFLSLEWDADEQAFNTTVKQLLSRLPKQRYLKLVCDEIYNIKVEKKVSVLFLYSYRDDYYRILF
UniProt P05213: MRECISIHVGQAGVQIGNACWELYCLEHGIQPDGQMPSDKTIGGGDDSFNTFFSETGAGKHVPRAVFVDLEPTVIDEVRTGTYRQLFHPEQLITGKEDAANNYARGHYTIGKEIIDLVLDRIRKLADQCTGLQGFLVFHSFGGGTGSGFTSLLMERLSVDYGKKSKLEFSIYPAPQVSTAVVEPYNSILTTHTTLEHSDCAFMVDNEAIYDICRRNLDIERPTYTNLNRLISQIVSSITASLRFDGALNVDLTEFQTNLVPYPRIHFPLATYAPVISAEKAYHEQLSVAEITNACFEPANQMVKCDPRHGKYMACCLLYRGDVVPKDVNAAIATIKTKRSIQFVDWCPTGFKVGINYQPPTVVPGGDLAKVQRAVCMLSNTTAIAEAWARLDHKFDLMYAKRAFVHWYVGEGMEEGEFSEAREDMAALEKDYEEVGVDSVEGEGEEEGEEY

B1: TMOD2 (protein, UniProt Q9JKK7 1-351)
chain: MALPFQKGLEKYKNIDEDELLGKLSEEELKQLENVLDDLDPESATLPAGFRQKDQTQKAATGPFDREHLLMYLEKEALEQKDREDFVPFTGEKKGRVFIPKEKPVETRKEEKVTLDPELEEALASASDTELYDLAAVLGVHNLLNNPKFDEETTNGEGRKGPVRNVVKGEKAKPVFEEPPNPTNVEASLQQMKANDPSLQEVNLNNIKNIPIPTLKEFAKSLETNTHVKKFSLAATRSNDPVALAFAEMLKVNKTLKSLNVESNFITGTGILALVEALRENDTLTEIKIDNQRQQLGTAVEMEIAQMLEENSRILKFGYQFTKQGPRTRVAAAITKNNDLVRKKRVEGDRR
B2: PA2G4 (protein, UniProt P50580 1-394)
chain: MSGEDEQQEQTIAEDLVVTKYKMGGDIANRVLRSLVEASSSGVSVLSLCEKGDAMIMEETGKIFKKEKEMKKGIAFPTSISVNNCVCHFSPLKSDQDYILKEGDLVKIDLGVHVDGFIANVAHTFVIGVAQGTQVTGRKADVIKAAHLCAEAALRLVKPGNQNTQVTEAWNKVAHSFNCTPIEGMLSHQLKQHVIDGEKTIIQNPTDQQKKDHEKAEFEVHEVYAVDVLVSSGEGKAKDAGQRTTIYKRDPSKQYGLKMKTSRAFFSEVERRFDAMPFTLRAFEDEKKARMGVVECAKHELLQPFNVLYEKEGEFVAQFKFTVLLMPNGPMRITSGPFEPDLYKSEMEVQDAELKALLQSSASRKTQKKKKKKASKTVENATSGETLEENGAGD
B3: PUS71 (protein, UniProt Q8CE46 1-702)
chain: MAEDTDGGIRFNSLCFINDHVGFQGSIKTSPSDFIVIEIDEQGQLVSKATDGSLYEISKIQSEPSNSVKKPKLNIQNVSLEHKNSEGAADLPGCSDGDRSHQSDSEKENSVNSVTSKCEEESVDLLRSLLDEKTHTSLGQFACDIKRMWNSQTELTEPSPELSLGKILDKNRRAVLHSAVRQAFPFLITVGNQGEVVVKPNRECKELCRLVSEEEALGFFKYLDAKKENSKFTFKPDPNKDHRKAVHHFLNKKFGNLVETKSFPGQHHSAGNPDSAITVRFREKARGKRSHPEGCERGKAVYTAFTLQKENLETFEAIGLLAVKLGVIPSDFSYAGLKDKRAITYQSMVVKKVTPERLKSIKEEIEKKRMNVFNIRSVGDCLRLGQLKGNHFEIIIRHLRNQLNDSANLTERILEAIENVKNKGFVNYYGPQRFGKGQKIQTDQIGLALLKNEMVKAIKLFLTPEDVDDPVNKAKQYFLRTEDAKGTLSLMPEFRVRERALLESLHRFGVTEEGCVRAWFSFPHSMRIFYIHAYSSRIWNEAASYRLAAYGPKVVEGDLICSDEDADKHFPSSKVHLVTKEEESAHTYALHQVVLPVLGYNVQYPENQVGRWYQEALSRDGLQACRFRVPALKLNVPGCYRHIVKHPRNVSHRLVHPDPATEEARVEGPHSDDTASSLSLSFDLDASCYATVCLREMMKGDI
B4: SHQ1 (protein, UniProt Q7TMX5 1-569)
chain: MLTPAFELTQDCDFLTVAIRVPHARASEFDVYFEGVDFKFYAKPYFLRLTLPGRIVENGSEQGTYDADKGIFTIRLPKETPGQHFEGLNMLTALLAPRKSRSAKPLVEEIGASGVAEEGADDEDEEFDWEIEQTPYEEVSESTLQSQCHYGFGNLRAGVVQRLQDELSEVIDIKDPDFTPVTERRQKRLAAELAKFDPDHYLADFFEDEAVEQILKYSPWWNDAHAEMVASLGKNQEQGDSAALVSFSEEEKYQLRKFVNKSYLLDKTAHRQVYYGLVDILLAYCYEVRVTEGEHSVESAWTIRKLSPTLCWFETWTDVHEILVSFGRRVLCYPLYRHFKLVLKAYRDTIKILQLGKSAVLKCLLDVHKVFQENDPAYILNDLYISDYCVWIQKAKSKKLAALTEALKAVSLSKAQLGLELPELEAAALLVQEEEGAGRAAQCNPSHQAPHSSPEPSDSDSTSSSGTEDSASEQEEPAGTQPSLLTSLQAPLLEEDSALIIRESGLCRNMASQGCEVSQGQPLASARAPLIEELGDALKMLRVSTPHGVSAGSHGSVEDAEERGQVPCD
B5: DDX24 (protein, UniProt Q9ESV0 1-857)
chain: MKVKETNSKPKLASRGTFQRKGIKIVGKWKQVTIDPNLFADGQMDDLVCFEELTDYRLVKNPSRLFSSEETKKRKAQAVSEEEEEEEGQSSSPKKKIKLKKQRDAARAAEGAAAQNEYEVKASEPEAQGEVTACSDQKVGGAKSESLAQAAPRKKKNKGKKKLDTFQSTSPKLPKKSKKTWMAEVHDQKADVSAWRDLFVPKAVLRALSFLGFSAPTPIQALTLAPAIRDKLDILGAAETGSGKTLAFAIPMIHSVLQWHKMKAPPIPRSTGMPPREMRFGATAHLGSPCKDRTESGVLPEEARIETEAQPSDSGVQATPETSASASAQTLLVCDDDAGEGPSSLEEKPVPKQNEDGEEKFDAEQAGKLKQELCDQIAIYKVHPRRPLLGLVLTPTRELAIQVRQHIDAVAKFTGINTAILVGGMSTQKQQRMLNRHPEIVIATPGRLWELVKEKHPHLSNLRQLRCLVIDEADRMVEKGHFAELSQLLEMLNDSQYNPSRQTLVFSATLTLVHQAPARILHKKHVKKMDKTDKLDLLMQKVGMRGKPKVIDLTRNEGTVETLTETKIHCETDEKDLYLYYFLMQYPGRSLVFANSISCIKRLSGLLKVLDVMPLTLHACMHQKQRLRNLEQFARLQDCVLLATDVAARGLDIPKVQHVIHYQVPRTSEIYIHRSGRTARAASEGLSLMLIGPEDVINFKKIYKTLQKDEDIPLFPVQSKYMDVVKERIRLARQIEKAEYRNFQACLHNSWIEQAAAALEIELEEEMYKGGKADQQEERRRQKQMKMLKQELRHLLSQPLFQENLKTRYPTQSGRPPQPVLASRNIESALSCLSRQKRRRKKPKEPRAPPQPGSSTS
B6: SLC26A11 (protein, UniProt Q80ZD3 1-593)
chain: MAPDTCCCSATALRRRLPVLAWVPDYSLQWLRLDFIAGLSVGLTVIPQALAYAEVAGLPPQYGLYSAFMGCFVYFFLGTSRDVTLGPTAIMSLLVSFYTFREPAYAVLLAFLSGCIQLAMGLLHLGFLLDFISCPVIKGFTSAASITIGFGQIKNLLGLQKIPRQFFLQVYHTFLHIGETRVGDAVLGLASMLLLLVLKCMREHMPPPHPEMPLAVKFSRGLVWTVTTARNALVVSSAALIAYAFEVTGSHPFVLTGKIAEGLPPVRIPPFSVTRDNKTISFSEMVQDMGAGLAVVPLMGLLESIAVAKSFASQNNYRIDANQELLAIGLTNVLGSLVSSYPVTGSFGRTAVNAQTGVCTPAGGLVTGALVLLSLNYLTSLFSYIPKSALAAVIITAVTPLFDVKIFRSLWRVQRLDLLPLCVTFLLSFWEIQYGILAGSLVSLLILLHSVARPKTQVSEGQIFVLQPASGLYFPAIDALREAITNRALEASPPRSAVLECTHISSVDYTVIVGLGELLEDFQKKGVALAFVGLQVPVLRTLLAADLKGFRYFTTLEEAEKFLQQEPGTEPNSIHEDAVPEQRSSLLKSPSGP
B7: TMOD3 (protein, UniProt Q9JHJ0 1-352)
chain: MALPFRKDLGDYKDLDEDELLGKLSESELKQLETVLDDLDPENALLPAGFRQKNQTSKSATGPFDRERLLSYLEKQALEHKDRDDYVPYTGEKKGKIFIPKQKPAQTLTEETISLDPELEEALTSASDTELCDLAAILGMHNLIADTPFCDVLGSSNGVNQERFPNVVKGEKILPVFDEPPNPTNVEESLKRIRENDARLVEVNLNNIKNIPIPTLKDFAKTLEANTHVKHFSLAATRSNDPVAVAFADMLKVNKTLKSLNMESNFITGAGVLALIDALRDNETLMELKIDNQRQQLGTSVELEMAKMLEENTNILKFGYQFTQQGPRTRAANAITKNNDLVRKRRIEGDHQ

target: T1, HA-tagged SLC38A9 (mouse) (UniProt Q8BGD6); assay: affinity purification with mass spectrometry; C2C12 cells transfected 48 h with HA-tagged SLC38A9 or empty pCMV-HA; anti-HA-Tag (3724) immunoprecipitation from lysate, 10% SDS-PAGE, Coomassie, differential bands cut, LC-MS/MS
T1 sequence: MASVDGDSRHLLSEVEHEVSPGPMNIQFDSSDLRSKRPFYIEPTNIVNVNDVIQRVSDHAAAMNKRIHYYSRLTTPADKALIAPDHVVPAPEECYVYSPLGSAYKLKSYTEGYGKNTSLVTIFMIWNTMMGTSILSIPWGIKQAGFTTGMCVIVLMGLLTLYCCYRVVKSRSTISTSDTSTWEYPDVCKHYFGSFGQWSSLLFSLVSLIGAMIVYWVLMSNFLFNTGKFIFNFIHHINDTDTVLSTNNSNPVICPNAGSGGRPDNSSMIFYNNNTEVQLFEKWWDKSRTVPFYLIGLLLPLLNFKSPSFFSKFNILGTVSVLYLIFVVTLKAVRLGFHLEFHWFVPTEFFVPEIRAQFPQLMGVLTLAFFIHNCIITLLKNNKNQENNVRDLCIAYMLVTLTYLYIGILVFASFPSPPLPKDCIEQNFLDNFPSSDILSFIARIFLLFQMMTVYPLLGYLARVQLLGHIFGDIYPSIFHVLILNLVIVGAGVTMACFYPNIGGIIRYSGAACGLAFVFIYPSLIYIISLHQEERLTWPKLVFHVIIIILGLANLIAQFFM

binding, binds:
GM10073 (mouse (endogenous in C2C12))
EXOC8 (from UniProt Q6PGF7 1-716)
HSPA41 (from UniProt P48722 1-838)
EIF2AK4 (from UniProt Q9QZ05 1-1648)
AKT1S1 (from UniProt Q9D1F4 1-257)
TUBA1B (from UniProt P05213 1-451)
GM17430 (mouse (endogenous in C2C12))
B1
B2
B3
B4
B5
B6
B7
